From patent publication US20230322957A1
Positions count from the first letter of the chain named. Results are given in words; binding and its absence hold for the method and conditions named. Some results given as binding are weak or reduced against the parent protein; the word gives no strength.

Protein sequences, listed by entry. Tags and fused reporters are not part of them.
UniProt Q02223: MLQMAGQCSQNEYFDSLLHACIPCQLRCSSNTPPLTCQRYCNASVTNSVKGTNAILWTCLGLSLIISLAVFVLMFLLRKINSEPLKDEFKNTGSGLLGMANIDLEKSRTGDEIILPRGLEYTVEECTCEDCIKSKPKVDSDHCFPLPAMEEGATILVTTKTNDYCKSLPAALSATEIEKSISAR

B1: Mab 34 (antibody, V domains shown)
VH: EVQLLESGGGLVQPGGSLRLSCAASGFTFYTNAMGWVRQAPGKGLEWVSAINRFGGSTYYADSVKGRFTISRDNSKNTLYLQMNSLRAEDTAVYYCAKVLGWFDYWGQGTLVTVSS
VL: EIVLTQSPGTLSLSPGERATLSCRASQSVSSYYLAWYQQKPGQAPRLLISGAGSRATGIPDRFSGSGSGTDFTLTISRLEPEDFAVYYCQQYGYPPDFTFGQGTKVEIK
B2: Mab 44 (antibody, V domains shown)
VH: EVQLLESGGGLVQPGGSLRLSCAASGFTFSSAPMGWVRQAPGKGLEWVSAISYIGHTYYADSVKGRFTISRDNSKNTLYLQMNSLRAEDTAVYYCAKVLGWFDYWGQGTLVTVSS
VL: B1 VL with S31D, Y32E, A35S, S50H, G51S, G53S, S54T, T75A
B3: Mab 28 (antibody, V domains shown)
VH: B2 VH
VL: B1 VL
B4: Mab 14 (antibody, V domains shown)
VH: B1 VH
VL: B1 VL with S31D, Y32E, A35S, S50H, G51S, G53S, S54T, T75A

What follows are binders tested against human BCMA on the cell surface (human) (UniProt Q02223) (assay: flow cytometry on HEK-huBCMA cells, PE-labelled anti-human Fc secondary antibody, median fluorescence intensity).

binding	Binder
binds	B1
binds	B2
binds	B3
binds	B4
